Over roughly 33,000 sequences, “E-score (-0.5 to 0.5)” has its median near -8e-05; the highest 2% begin near 0.23. The list shows a part of the results.
Target: T1, Nrg2 (UniProt P38082)
T1 sequence: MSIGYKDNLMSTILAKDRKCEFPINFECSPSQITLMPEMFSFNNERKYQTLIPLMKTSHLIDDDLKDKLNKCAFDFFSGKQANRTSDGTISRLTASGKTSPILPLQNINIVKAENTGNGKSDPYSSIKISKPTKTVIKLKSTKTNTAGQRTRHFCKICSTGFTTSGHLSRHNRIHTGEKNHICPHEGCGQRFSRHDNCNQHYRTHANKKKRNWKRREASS
Experiment: PBM E-score (8-mer binding enrichment) (E-score (-0.5 to 0.5)); higher = stronger / more preferred TF binding
Conditions: protein concentration: 100 nM; construct: GST-full length
Procedure, shortened: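 Universal all-10-mer Agilent arrays, fresh or stripped once, were converted to double-stranded form by primer extension. GST-tagged yeast transcription factors from PURExpress in vitro transcription/translation, full-length or DNA-binding domain only, were applied at about 100-200 nM and detected with fluorescent anti-GST. After masliner normalisation, the Universal PBM Analysis Suite scored each ungapped eight-base word together with its reverse complement by E-score.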

Sequence	PBM E-score
GTCTGCTA	0.0308
ATTATGGG	-0.00822
CATGACGC	-0.0369
ACTTCTGC	-0.00759
ATATACTA	0.307
CCTGCCTA	0.0395
AGTTGTTG	0.0587
CAGAGCGG	-0.069
CCCGTGTA	-0.0764
CCTGAGAA	0.00042
TCAGTCGA	0.0823
AAGAAACG	-0.00869
GGCTACCC	-0.112
GGATCCGA	0.0229
ACCCGGAC	-0.235
AAAAAACA	0.214
ATTATCTA	0.155
GTTATGCA	-0.0185
GACATGTC	-0.225
GAAGGCGA	-0.139
ATCATACC	0.00359
AAAAGAGC	-0.00644
CGTAACTA	-0.117
ATGTAGGA	-0.153
CGGTTTTC	0.0834

Sequence	PBM E-score
ATCGACAT	0.0675
AGTATATC	0.107
CGTTCGGC	-0.0354
CGCATTAC	0.0587
GCTGCACC	-0.0621
GAGGCCGC	-0.239
AACTGTAA	0.155
CCCGGAAC	-0.157
ATCTCATA	-0.0186
AGAGCTTA	-0.0581
CTACCATC	-0.126
CGGACCCG	0.0458
CGGGCTTA	-0.173
ACCTCATC	0.0441
ACCTTCAC	-0.041
ATATTATC	0.0409
GCAAGGGA	0.109
GATTACAC	-0.0597
AGCGGGTG	-0.0715
CATAGCCA	0.0564
AGTCGCTA	-0.114
CTAGGCCC	-0.096
CAAGTCCC	-0.112
GTGGGACA	-0.0713
ATGTCCAC	-0.0219

Sequence	PBM E-score
ATCCTATA	0.12
CACTGAAA	0.0555
GACCGTAC	-0.266
CGATAATC	-0.071
ACGTCACC	-0.00153
CTCGCTCC	0.0225
AAATCAAC	0.0408
ACACCAGG	-0.118
ACGCGGGC	0.125
AATACGCA	0.153
AGGTATTC	-0.0326
GTCGCCTA	-0.0434
AGCGAGCA	0.00354
CCACGGAC	-0.156
CGAGCCAA	-0.0843
ACGGTCCA	-0.162
CCCCGCTC	-0.215
GCTATATA	0.0573
CGATCAAC	-0.0656
ACCGCCCC	0.0639
ACATCACG	-0.061
TACACTAA	0.0945
ATGAGATG	0.0856
CTTTGCTC	-0.0234
AAAGAGCC	-0.174

Sequence	PBM E-score
ATGGCCTG	-0.0422
AGCTTAAG	-0.0282
TAGCTGAA	0.0402
GTCTGCAC	-0.0491
AGTTCCCG	0.0394
AGCAAGAA	0.0497
AACTAGGC	-0.00972
CGCTTCCG	-0.0404
CAGTCCTA	-0.223
ACCGGACT	-0.131
GAGCCAAC	-0.0523
GAGTTGAC	-0.0655
CAGCGATG	-0.0877
CATCAGAA	0.0294
AGGGCTGC	-0.0224
GAAACCCC	0.00642
ATTTCGGA	0.074
GTGTGTCA	0.0714
GGGTTTGA	0.218
GGACACGA	-0.191
ATAACAAT	0.0175
TAAGGGGA	-0.00292
ACCCCCAC	-0.388
ATCATCGG	-0.0826
GCGCGTTA	0.213

Sequence	PBM E-score
AGCGTCAA	-0.0325
AGAGTCAT	-0.306
ACTTCGAA	0.0124
ATTGACGC	0.0308
CTCCCTAC	-0.214
GGGCGCAC	-0.121
CGGATAAC	0.05
GAACCGAC	-0.0162
CAGTATCC	0.0489
ATAAAATG	0.0895
AATATTAC	0.14
ACTCTGGC	0.0403
CGTGGTCA	0.0268
AGCGGGAT	-0.0409
AAGGACCA	-0.0191
ATATCGCA	-0.0927
GATATGGC	-0.112
ATTTCATG	-0.00641
ATTGAGTA	0.22
AGACAGAA	0.159
CTGTTGGA	0.0236
CGAAATGA	0.127
CAGAAGGC	-0.134
CCGGGAGG	-0.175
GGAGACTA	-0.126

Sequence	PBM E-score
ACAGATGG	-0.0336
ACACGTGT	-0.123
ATGGTCGA	-0.144
AGGATGAC	-0.187
GAACGTCA	-0.129
CCGCCAGC	-0.127
GGAAGAGA	-0.0957
CGGTATTA	-0.0616
GTGAAGAA	0.0239
ATATCTCC	0.251
ATGGACAG	-0.0815
AGGTGCAA	-0.00317
GTCGAGAA	0.0187
CCCCAAAG	-0.0786
GGAAATCA	-0.049
CAACGAAG	-0.137
ATATGTTG	0.158
CTACCAAG	-0.0494
AGCGTACT	0.00264
AAGGCCAG	0.099
GCAGTACA	-0.0025
TACTTGAA	-0.128
AGACCAAT	-0.00568
AGGGCGGG	0.06
GGATTACA	-0.0643

Sequence	PBM E-score
ACACACAC	0.0306
CGAGAATA	0.16
TGAGAACA	0.133
GAAGGGGC	-0.226
CGAAGTAC	0.103
CATCTTGG	-0.0269
CATCGGCA	-0.11
AGTGATAT	0.139
ATCCGCTC	-0.138
ATCGCCAT	0.0989
GTCGCGTA	0.147
AAACGCGA	0.0518
AAGCGAGT	0.0804
ACTTATAG	-0.194
ATAAAGAC	-0.0651
ATTAAAAG	0.103
AATAGAGG	-0.0108
AAGTTTGG	0.0644
ATCTTACG	-0.0429
CCGCCGAG	0.01
AACTGCGG	0.00917
CGACAACG	-0.0823
ATTAACGA	0.128
AACATGTC	-0.00819
GACAGACA	0.248

Another view of part of the listing above:
Sequence,PBM E-score
TAGCTGAA,0.0402
GTCTGCAC,-0.0491
AGTTCCCG,0.0394
AGCAAGAA,0.0497
AACTAGGC,-0.00972
CGCTTCCG,-0.0404
CAGTCCTA,-0.223
ACCGGACT,-0.131
GAGCCAAC,-0.0523
GAGTTGAC,-0.0655
CAGCGATG,-0.0877
CATCAGAA,0.0294
AGGGCTGC,-0.0224
GAAACCCC,0.00642
ATTTCGGA,0.074
GTGTGTCA,0.0714
GGGTTTGA,0.218
GGACACGA,-0.191
ATAACAAT,0.0175
TAAGGGGA,-0.00292
ACCCCCAC,-0.388
ATCATCGG,-0.0826
GCGCGTTA,0.213
AGCGTCAA,-0.0325
AGAGTCAT,-0.306
ACTTCGAA,0.0124
ATTGACGC,0.0308
CTCCCTAC,-0.214
GGGCGCAC,-0.121
CGGATAAC,0.05
GAACCGAC,-0.0162
CAGTATCC,0.0489
ATAAAATG,0.0895
AATATTAC,0.14
ACTCTGGC,0.0403
CGTGGTCA,0.0268
AGCGGGAT,-0.0409
AAGGACCA,-0.0191
ATATCGCA,-0.0927
GATATGGC,-0.112
ATTTCATG,-0.00641
ATTGAGTA,0.22
AGACAGAA,0.159
CTGTTGGA,0.0236
CGAAATGA,0.127
CAGAAGGC,-0.134
CCGGGAGG,-0.175
GGAGACTA,-0.126
ACAGATGG,-0.0336
ACACGTGT,-0.123
ATGGTCGA,-0.144
AGGATGAC,-0.187
GAACGTCA,-0.129
CCGCCAGC,-0.127
GGAAGAGA,-0.0957
CGGTATTA,-0.0616
GTGAAGAA,0.0239
ATATCTCC,0.251
ATGGACAG,-0.0815
AGGTGCAA,-0.00317
GTCGAGAA,0.0187
CCCCAAAG,-0.0786
GGAAATCA,-0.049
CAACGAAG,-0.137
ATATGTTG,0.158
CTACCAAG,-0.0494
AGCGTACT,0.00264
AAGGCCAG,0.099
GCAGTACA,-0.0025
TACTTGAA,-0.128
AGACCAAT,-0.00568
AGGGCGGG,0.06
GGATTACA,-0.0643
ACACACAC,0.0306
CGAGAATA,0.16
TGAGAACA,0.133
GAAGGGGC,-0.226
CGAAGTAC,0.103
CATCTTGG,-0.0269
CATCGGCA,-0.11
AGTGATAT,0.139
ATCCGCTC,-0.138
ATCGCCAT,0.0989
GTCGCGTA,0.147
AAACGCGA,0.0518
AAGCGAGT,0.0804
ACTTATAG,-0.194
ATAAAGAC,-0.0651
ATTAAAAG,0.103
AATAGAGG,-0.0108
AAGTTTGG,0.0644
ATCTTACG,-0.0429
CCGCCGAG,0.01
AACTGCGG,0.00917
CGACAACG,-0.0823
ATTAACGA,0.128
AACATGTC,-0.00819
GACAGACA,0.248

Remaining list, next part

Sequence	PBM E-score
ATTATCTG	-0.0132
ATTGCGGC	-0.024
AGTTTATC	0.116
CTTTGCCA	0.0655
CTGGAGGC	0.0336
CCCGGGAA	-0.0196
AATTCTTA	0.0329
CCATCGTA	0.122
ATTCGGGA	0.0112
ACCGCAAA	-0.0189
AGGTTAAC	0.149
GAACGAAA	0.178
CATTGACG	-0.0426
CCGTAGCA	-0.175
ACCTTTGC	0.0694
ATAGAGTC	-0.134
GGTACTTA	-0.109
CCAGTGGG	-0.192
ACACGTCC	-0.254
CCGTCCGA	-0.257
CCGGGAAG	-0.0756
AAGATCGC	-0.0829
CGATACAG	0.053
CCAATTTC	0.18
AGAGTATG	-0.178

Sequence	PBM E-score
CAGTAGCC	-0.226
AAATCGCT	-0.165
CACGAACC	0.085
AACATGAT	0.0649
AAACACAC	0.106
TAATCCTA	-0.0418
AAGCGATC	-0.0176
ACCTACAT	0.00858
ACGGTACT	-0.0901
GGATAGAC	-0.199
GGGGCTAC	-0.135
CGCAAGAG	0.123
GATAGGAC	-0.218
ACATCACT	0.0115
CATCAACG	0.0557
GGGTTAGA	-0.0759
CAGCAATC	0.0368
TGGTACCA	0.172
ACGACATG	0.113
CTATTCAC	0.0524
AAAACCCG	0.202
CAAGAAGA	0.126
AAGAGTGT	-0.153
CAAAAACC	0.141
GCATTACA	0.152

Sequence	PBM E-score
CTCGCACA	0.106
GCTGGGGA	-0.0446
CTGACAGC	0.0539
CCAAAGTC	-0.0327
CGTTTTGC	-0.0176
GGCTGGAA	-0.0294
ATGTGTCC	0.0056
AACTAAGT	0.168
CGTGAGAG	-0.184
GGCCAAGA	-0.249
CCTTCACG	0.00598
CCCTGCAG	0.26
CTCGATGC	0.0943
GGCTACTA	0.0202
ACGATCAT	0.00749
CAGACAGA	0.117
CATCCCAA	-0.0514
GGTACGAC	-0.117
ACTTTCAG	-0.00105
GCACTCCA	-0.0773
CACTCCGC	0.0303
GCCGAGAC	-0.00484
CATATCTC	0.0747
CGGGATCA	-0.135
AAGTACGT	0.00281

Sequence	PBM E-score
ATCGCTTG	-0.0476
AGCCCAAT	-0.0858
ACGAATGC	-0.0388
GTCGGCAC	-0.13
ACTTTTCA	0.145
CCTTTGTA	-0.0822
CCACTGGG	-0.162
AGGCAATC	0.102
AAAATAAC	-0.118
AGCACACG	-0.151
CACGTGAA	0.035
CGCCGAAA	0.00516
CGGACATC	-0.12
TATGGAAA	0.0537
CCTACTAG	0.00257
CAGGATCA	0.0604
CAGGGTAA	0.215
GGTCAAGA	0.0338
AGTGGATC	0.0256
ATATGGCG	0.0752
CGCGGACC	0.14
GGCCCTTA	0.185
ACGTAATA	0.064
GCAACTCA	0.0464
CCGGCGAC	-0.186

Sequence	PBM E-score
ACAATAAC	0.174
AGGGTTCC	0.189
CTGAAGCA	0.0438
ACAAAAGG	4e-05
CCGCATCC	-0.0302
TAGCCTGA	-0.154
CTACCCAG	0.0371
CACTTAGG	-0.0865
ATTATAGA	0.0777
CAGGGGAG	-0.0725
CTCTTCGC	-0.121
CGGTTACG	-0.0776
CTCATAGC	-0.0958
ACTTGCCA	0.0732
ATGTGAGG	-0.0251
GAATTTTA	0.0447
AGGGGGAT	-0.256
ACTAGAAC	0.134
ATTTATTC	0.0954
GATCGATA	0.107
GGTACATA	0.0645
GAAAACGC	-0.0982
CCACAGAA	0.00358
AACACGAT	0.0947
AATCGCAC	-0.165

Sequence	PBM E-score
ATTGGGTA	-0.0882
GTTTATCA	0.187
ACGCGTTA	0.0891
ACGAGTTG	-0.0425
GGAATGCA	0.077
AGTTAGAT	-0.092
AGAGACTG	-0.181
ACTCGCCA	0.0381
ACCGAGCA	0.0403
ATCACCGC	-0.00903
AACCTCGG	-0.0648
GGTTAGAC	0.0624
CTTAGAAA	-0.159
CGCGCGGA	0.227
CTCGCCTC	-0.132
CTGCTCGC	0.0141
CTGGATAC	-0.108
ATTCTGCC	0.198
AAGTTCTG	-0.0661
TAGCAGGA	-0.0593
AATAGAAG	-0.0036
CAGAGACC	-0.212
GGGCGAAA	0.0498
AATGAGCG	0.187
CGATATCC	0.133

Sequence	PBM E-score
ACGGCGTC	-0.0952
CGTATAAC	-0.0636
GCGTCCAC	-0.148
AATTGGTG	0.109
ATACTGCC	0.0803
CATTTCCA	0.237
GCTTAAAA	-0.00191
CCACCTTA	0.0275
CAGTGTCC	-0.0662
GTCAGGAA	-0.0289
GTAAAATA	-0.0589
AACCGGCT	-0.0918
ACGCTGAT	-0.118
ATAGCTTG	-0.0154
CTCGCCCC	-0.166
ATAATAAG	0.0711
TAGTAAGA	0.107
AGGCTAAC	-0.106
CCTCACTC	-0.0183
